# Results taken from PMC11585138.
# Sequences of proteins named here, by UniProt entry; tags and fusion partners are left off. Residues count along the entry.
# UniProt P12032, residues 25-205: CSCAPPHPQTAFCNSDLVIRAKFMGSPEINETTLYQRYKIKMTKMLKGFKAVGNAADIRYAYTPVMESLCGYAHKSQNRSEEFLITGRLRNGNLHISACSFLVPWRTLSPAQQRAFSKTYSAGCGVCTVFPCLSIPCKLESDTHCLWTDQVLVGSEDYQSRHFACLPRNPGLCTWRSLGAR
# No constants are given. Whether binding was seen depends on the method and setting. In cells and extracts the contact can be indirect. Some results given as binding are weak or reduced against the parent protein; the word gives no strength.
# Target: TFRC (mouse (endogenous in MC3T3-E1)) (UniProt Q62351)
# Test: co-IP; endogenous co-IP from total lysates (RIPA buffer) of control and HGHF-treated MC3T3-E1 osteoblasts; precipitated with anti-TFRC antibody or mock IgG and protein A/G agarose beads overnight at 4 °C; immunoblot
substance,measurement,value
TIMP1 (from UniProt P12032 25-205),binding,binds
